Laboratory results as given in paper PMC11130711.
No constants are given. Whether binding was seen depends on the method and setting. Binding seen in cells or lysates may run through a third protein. Some binding calls cover weakened binding; strength is not graded here. Values belong to the molecule of their own block, whether it stands above or below them.

Chains of the proteins cited; added tags and fusions are not shown.
UniProt Q8R4B8: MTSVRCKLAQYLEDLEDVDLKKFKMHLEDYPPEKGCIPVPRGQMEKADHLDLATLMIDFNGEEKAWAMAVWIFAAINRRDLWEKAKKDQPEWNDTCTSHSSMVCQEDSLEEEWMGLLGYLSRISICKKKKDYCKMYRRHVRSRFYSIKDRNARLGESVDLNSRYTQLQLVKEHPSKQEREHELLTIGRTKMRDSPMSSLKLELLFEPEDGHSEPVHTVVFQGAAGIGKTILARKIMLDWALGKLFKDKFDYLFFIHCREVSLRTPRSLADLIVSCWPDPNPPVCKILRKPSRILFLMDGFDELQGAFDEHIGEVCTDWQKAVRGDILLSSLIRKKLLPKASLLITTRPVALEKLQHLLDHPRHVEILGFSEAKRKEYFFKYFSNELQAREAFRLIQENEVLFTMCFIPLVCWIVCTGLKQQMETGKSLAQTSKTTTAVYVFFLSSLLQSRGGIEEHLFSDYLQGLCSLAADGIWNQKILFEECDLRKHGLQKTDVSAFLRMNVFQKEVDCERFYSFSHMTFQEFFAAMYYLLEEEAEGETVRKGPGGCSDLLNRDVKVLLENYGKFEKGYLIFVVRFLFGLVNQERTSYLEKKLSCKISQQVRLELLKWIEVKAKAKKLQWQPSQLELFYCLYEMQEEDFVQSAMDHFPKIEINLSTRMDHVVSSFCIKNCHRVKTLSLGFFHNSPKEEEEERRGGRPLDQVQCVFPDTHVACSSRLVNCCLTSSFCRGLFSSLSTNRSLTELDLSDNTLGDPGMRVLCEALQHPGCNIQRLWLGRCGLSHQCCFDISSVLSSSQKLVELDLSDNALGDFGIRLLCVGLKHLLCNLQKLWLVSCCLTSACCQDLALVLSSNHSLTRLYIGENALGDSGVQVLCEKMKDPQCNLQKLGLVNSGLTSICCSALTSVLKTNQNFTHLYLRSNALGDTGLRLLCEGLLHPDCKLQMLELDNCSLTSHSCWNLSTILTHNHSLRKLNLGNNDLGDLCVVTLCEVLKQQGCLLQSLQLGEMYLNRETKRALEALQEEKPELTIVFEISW
UniProt Q96P20: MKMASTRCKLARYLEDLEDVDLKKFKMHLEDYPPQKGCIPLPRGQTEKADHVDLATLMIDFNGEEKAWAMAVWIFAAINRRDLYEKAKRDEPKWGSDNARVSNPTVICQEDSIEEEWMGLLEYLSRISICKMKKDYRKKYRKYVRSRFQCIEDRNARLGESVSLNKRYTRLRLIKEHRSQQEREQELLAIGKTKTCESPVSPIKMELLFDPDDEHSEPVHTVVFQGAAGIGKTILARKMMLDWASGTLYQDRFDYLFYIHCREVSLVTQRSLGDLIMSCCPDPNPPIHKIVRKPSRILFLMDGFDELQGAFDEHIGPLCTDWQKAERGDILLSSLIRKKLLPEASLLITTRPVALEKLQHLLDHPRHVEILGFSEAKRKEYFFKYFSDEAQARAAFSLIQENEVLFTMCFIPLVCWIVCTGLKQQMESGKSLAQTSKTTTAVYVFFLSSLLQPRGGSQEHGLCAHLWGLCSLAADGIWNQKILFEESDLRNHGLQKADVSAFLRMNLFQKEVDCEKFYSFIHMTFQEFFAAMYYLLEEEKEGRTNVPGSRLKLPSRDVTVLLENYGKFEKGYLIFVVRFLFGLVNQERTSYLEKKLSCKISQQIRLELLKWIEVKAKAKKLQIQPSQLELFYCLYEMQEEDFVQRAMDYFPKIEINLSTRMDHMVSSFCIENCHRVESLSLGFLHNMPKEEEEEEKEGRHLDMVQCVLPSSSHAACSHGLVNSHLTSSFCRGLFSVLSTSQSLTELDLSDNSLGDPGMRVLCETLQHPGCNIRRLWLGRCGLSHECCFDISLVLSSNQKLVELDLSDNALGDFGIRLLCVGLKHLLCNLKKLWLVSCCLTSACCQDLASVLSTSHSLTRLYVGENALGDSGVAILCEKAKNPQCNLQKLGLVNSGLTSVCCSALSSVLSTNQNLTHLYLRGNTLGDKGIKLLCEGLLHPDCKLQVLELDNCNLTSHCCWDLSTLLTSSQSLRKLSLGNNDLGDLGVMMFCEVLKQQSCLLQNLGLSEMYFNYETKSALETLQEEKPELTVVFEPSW
UniProt Q9ULZ3: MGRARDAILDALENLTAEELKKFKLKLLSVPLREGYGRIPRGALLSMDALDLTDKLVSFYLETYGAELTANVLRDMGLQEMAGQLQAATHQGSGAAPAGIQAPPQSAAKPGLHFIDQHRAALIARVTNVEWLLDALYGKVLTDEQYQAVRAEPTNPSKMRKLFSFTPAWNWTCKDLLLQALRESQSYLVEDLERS

How the values were obtained:
[1] = target: Flag-NLRP3 (mouse NLRP3, wild type) (mouse) (UniProt Q8R4B8); test: co-IP; Flag-NLRP3 and ASC expressed in HEK293T cells (WT or ZDHHC7 KO; DMSO or 2-BP for 12 h); RIPA lysate; IP with anti-FLAG M2 agarose, immunoblot
[2] = target: NLRP3 (NOD-like receptor protein 3), endogenous in mouse BMDMs (mouse (endogenous in BMDMs)) (UniProt Q8R4B8); test: FRET or BRET; FRET assay in LPS-primed BMDMs (Figure S1B); its methods were not shown
[3] = target: NLRP3, endogenous in human THP-1 cells (human (endogenous in THP-1)) (UniProt Q96P20); test: co-IP; endogenous proteins; THP-1 cells resting, PMA-differentiated, or treated with LPS and nigericin; RIPA lysate; IP of NLRP3 with protein A/G agarose, immunoblot for ZDHHC7

- binding [1]: binds
Molecule: ASC (apoptosis-associated speck-like protein containing a CARD), human, expressed in HEK293T cells (from UniProt Q9ULZ3 1-195)

- binding [2]: binds
B1: ZDHHC7 (zinc finger DHHC-type palmitoyl transferase 7), endogenous in mouse BMDMs (enzyme, UniProt Q91WU6 1-308)
chain: MQPSGHRLRDIEHHPLLTDNDNYDSASSSSSETDMADRVWFIRDGCGMVCAVMTWLLVVYADFVVTFVMLLPSKDFWYSVVNGVLFNCLAVLALSSHLRTMLTDPGAVPKGNATKEYMESLQLKPGEVIYKCPKCCCIKPERAHHCSICKRCIRKMDHHCPWVNNCVGEKNQRFFVLFTMYIALSSVHALILCGLQFISCVRGQWTECSDFSPPITVILLVFLCLEGLLFFTFTAVMFGTQIHSICNDETEIERLKSEKPTWERRLRWEGMKSVFGGPPSLLWMNPFVGFRLRRLQMRTRKGGPEFSV

- binding [3]: binds
B2: ZDHHC7, endogenous in human THP-1 cells (enzyme, UniProt Q9NXF8 1-308)
chain: MQPSGHRLRDVEHHPLLAENDNYDSSSSSSSEADVADRVWFIRDGCGMICAVMTWLLVAYADFVVTFVMLLPSKDFWYSVVNGVIFNCLAVLALSSHLRTMLTDPGAVPKGNATKEYMESLQLKPGEVIYKCPKCCCIKPERAHHCSICKRCIRKMDHHCPWVNNCVGEKNQRFFVLFTMYIALSSVHALILCGFQFISCVRGQWTECSDFSPPITVILLIFLCLEGLLFFTFTAVMFGTQIHSICNDETEIERLKSEKPTWERRLRWEGMKSVFGGPPSLLWMNPFVGFRFRRLPTRPRKGGPEFSV
